Results: patent US20200339625A1, “NOVEL RADIOMETAL-BINDING COMPOUNDS FOR DIAGNOSIS OR TREATMENT OF PROSTATE SPECIFIC MEMBRANE ANTIGEN-EXPRESSING CANCER” (PROVINCIAL HEALTH SERVICES AUTHORITY, priority 2017, published 2020)

Columns and labels:
[1] = Radiation dosimetry calculation (OLINDA), 25-g mouse
Method: 1.18 Radiation Dosimetry Calculation
(§1) Internal dosimetry estimates were calculated using the organ level internal dose assessment (OLINDA) software v.2.0.^37 These estimates were performed for the mouse using the 25 g MOBY phantom,^38 for humans using the NURBS model for the adult male,^39 and for the tumors using the previously reported unit density sphere model.^40 All the phantoms and the sphere model are available in OLINDA and require the input of the total number of decays normalized by injected activity in units of MBq×h/MBq for each of the source organ/tumor.
The biodistribution data (available in the Tables 1 and 2, below) was used to determine the kinetics input values required by OLINDA. First, each of the values was decayed to its corresponding time point (the values on the table are shown at injection time). Then the different time-points of the uptake data (% ID/g) for each organ were fitted to both mono-exponential
functions using in-house software developed in Python. The best fit was selected based on maximizing the coefficient of determination (R2) of the fit and minimizing the residuals. The areas under the curves were analytically calculated based on the parameters obtained from the best fit of each organ and this provided the kinetic input values required by OLINDA.
In the mouse case, the adrenals, blood, fat, muscle, and seminal vesicles are not modeled in the phantom. These organs were grouped together and included in what OLINDA calls the remainder of the body.

[2] = Radiation dosimetry calculation (OLINDA), extrapolated to humans (male); conditions: human
Method: as §1
Extrapolation of the mice biodistribution data to humans was performed using the method proposed by Kirschner et al.^41 and shown in the following equation: […]
Where morgan is the mass of the organ and M represents the total body mass. The subscripts indicate whether the values correspond to human or mouse. Masses for the organs and total body weight were taken from the simulated masses of the phantoms in OLINDA. […] The % ID/g of the blood was assumed to be the one for the heart contents of the phantom. This value was also used to calculate the bone marrow uptake based on the method described by Wessels et al.^42 in which we assumed a hematocrit fraction of 0.40 based on the patient values shown on that study. At the end, red marrow values used the blood measurements scaled by a factor of 0.32. In the human case, the fat, muscle, and seminal vesicles that are present in the biodistribution data are not modelled in the phantom so the numbers of decays present in these regions were included in the remainder of the body. The data was again fitted as for the mouse case and the values for the total number of decays in units of MBq×h/MBq were inputted in OLINDA.

[3] = target organ Remainder of the body
[4] = target organ Urinary bladder wall

| Compound | Organ dose ([1]; target organ Brain) | Organ dose ([1]; target organ Heart) | Organ dose ([1]; target organ Kidneys) | Organ dose ([1]; target organ Large intestine) | Organ dose ([1]; target organ Liver) | Organ dose ([1]; target organ Lungs) | Organ dose ([1]; target organ Pancreas) | Organ dose [1, 3] | Organ dose ([1]; target organ Skeleton) | Organ dose ([1]; target organ Small intestine) | Organ dose ([1]; target organ Spleen) | Organ dose ([1]; target organ Stomach wall) | Organ dose ([1]; target organ Testes) | Organ dose ([1]; target organ Thyroid) | Organ dose [1, 4] | Organ dose ([2]; target organ Adrenals) | Organ dose ([2]; target organ Brain) | Organ dose ([2]; target organ Esophagus) | Organ dose ([2]; target organ Eyes) | Organ dose ([2]; target organ Gallbladder wall) | also measured |
| --- | --- | --- | --- | --- | --- | --- | --- | --- | --- | --- | --- | --- | --- | --- | --- | --- | --- | --- | --- | --- | --- |
| O=C([O-])CN1CCN(CC(=O)[O-])CCN(CC(=O)NCCCC[C@H](NC(=O)[C@H](CCC(=O)O)NC(=O)CCCc2ccc(I)cc2)C(=O)NC[C@H]2CC[C@H](C(=O)N[C@@H](Cc3ccc4ccccc4c3)C(=O)NCCCC[C@H](NC(=O)N[C@@H](CCC(=O)O)C(=O)O)C(=O)O)CC2)CCN(CC(=O)[O-])CC1.[177Lu+3] [^177Lu-HTK01169] | 9.06E−01 mGy/MBq | 1.79E+00 mGy/MBq | 4.82E+01 mGy/MBq | 2.66E+00 mGy/MBq | 2.50E+00 mGy/MBq | 2.32E+00 mGy/MBq | 3.64E+00 mGy/MBq | 2.21E+00 mGy/MBq | 6.22E+01 mGy/MBq | 2.35E+00 mGy/MBq | 5.62E+00 mGy/MBq | 2.41E+00 mGy/MBq | 1.95E+00 mGy/MBq | 1.25E+00 mGy/MBq | 8.25E+00 mGy/MBq | 1.21E−01 mGy/MBq | 2.59E−03 mGy/MBq | 1.70E−02 mGy/MBq | 1.52E−02 mGy/MBq | 1.88E−02 mGy/MBq | Organ dose ([2]; target organ Heart wall): 5.04E−02 mGy/MBq; Organ dose ([2]; target organ Kidneys): 1.90E+00 mGy/MBq; Organ dose ([2]; target organ Left colon): 3.06E−02 mGy/MBq; Organ dose ([2]; target organ Liver): 2.87E−02 mGy/MBq; Organ dose ([2]; target organ Lungs): 4.51E−02 mGy/MBq; Organ dose ([2]; target organ Osteogenic Cells): 1.54E−02 mGy/MBq; Organ dose ([2]; target organ Pancreas): 1.69E−02 mGy/MBq; Organ dose ([2]; target organ Prostate): 1.70E−02 mGy/MBq; Organ dose ([2]; target organ Rectum): 2.21E−02 mGy/MBq; Organ dose ([2]; target organ Red marrow): 2.31E−02 mGy/MBq; Organ dose [2, 3]: 2.70E−02 mGy/MBq; Organ dose ([2]; target organ Right colon): 2.38E−02 mGy/MBq; Organ dose ([2]; target organ Salivary glands): 1.56E−02 mGy/MBq; Organ dose ([2]; target organ Small intestine): 2.85E−02 mGy/MBq; Organ dose ([2]; target organ Spleen): 1.24E−01 mGy/MBq; Organ dose ([2]; target organ Stomach Wall): 2.02E−02 mGy/MBq; Organ dose ([2]; target organ Testes): 3.17E−02 mGy/MBq; Organ dose ([2]; target organ Thymus): 1.64E−02 mGy/MBq; Organ dose ([2]; target organ Thyroid): 1.60E−02 mGy/MBq; Organ dose [2, 4]: 5.19E−02 mGy/MBq |
| O=C([O-])CN1CCN(CC(=O)[O-])CCN(CC(=O)NCC2CCC(C(=O)N[C@@H](Cc3ccc4ccccc4c3)C(=O)NCCCC[C@H](NC(=O)N[C@@H](CCC(=O)O)C(=O)O)C(=O)O)CC2)CCN(CC(=O)[O-])CC1.[177Lu+3] (some centres unmarked) [^177Lu-PSMA-617, reference compound] | 5.19E−02 mGy/MBq | 7.72E−02 mGy/MBq | 2.82E+00 mGy/MBq | 2.10E−01 mGy/MBq | 1.31E−01 mGy/MBq | 1.07E−01 mGy/MBq | 2.08E−01 mGy/MBq | 1.77E−01 mGy/MBq | 2.48E+00 mGy/MBq | 1.69E−01 mGy/MBq | 2.58E−01 mGy/MBq | 1.81E−01 mGy/MBq | 2.07E−01 mGy/MBq | 5.94E−02 mGy/MBq | 1.26E+01 mGy/MBq | 7.64E−03 mGy/MBq | 4.32E−04 mGy/MBq | 7.60E−04 mGy/MBq | 6.80E−04 mGy/MBq | 8.76E−04 mGy/MBq | Organ dose ([2]; target organ Heart wall): 1.00E−03 mGy/MBq; Organ dose ([2]; target organ Kidneys): 1.11E−01 mGy/MBq; Organ dose ([2]; target organ Left colon): 1.81E−03 mGy/MBq; Organ dose ([2]; target organ Liver): 1.37E−03 mGy/MBq; Organ dose ([2]; target organ Lungs): 1.81E−03 mGy/MBq; Organ dose ([2]; target organ Osteogenic Cells): 8.30E−04 mGy/MBq; Organ dose ([2]; target organ Pancreas): 7.60E−04 mGy/MBq; Organ dose ([2]; target organ Prostate): 1.17E−03 mGy/MBq; Organ dose ([2]; target organ Rectum): 1.45E−03 mGy/MBq; Organ dose ([2]; target organ Red marrow): 7.59E−04 mGy/MBq; Organ dose [2, 3]: 1.70E−03 mGy/MBq; Organ dose ([2]; target organ Right colon): 1.31E−03 mGy/MBq; Organ dose ([2]; target organ Salivary glands): 6.98E−04 mGy/MBq; Organ dose ([2]; target organ Small intestine): 1.72E−03 mGy/MBq; Organ dose ([2]; target organ Spleen): 4.42E−03 mGy/MBq; Organ dose ([2]; target organ Stomach Wall): 1.69E−03 mGy/MBq; Organ dose ([2]; target organ Testes): 1.05E−03 mGy/MBq; Organ dose ([2]; target organ Thymus): 7.19E−04 mGy/MBq; Organ dose ([2]; target organ Thyroid): 7.11E−04 mGy/MBq; Organ dose [2, 4]: 6.63E−02 mGy/MBq |
